Patent US20210388102A1
Results are given in words; binding and its absence hold for the method and conditions named. Some results given as binding are weak or reduced against the parent protein; the word gives no strength. Values belong to the binder of their own block, whether it stands above or below them.

The chains behind the UniProt entries cited, without tags or fusion partners. Where a name states a change or a piece, a line headed by the entry shows the natural chain unless it says otherwise.
UniProt Q13443: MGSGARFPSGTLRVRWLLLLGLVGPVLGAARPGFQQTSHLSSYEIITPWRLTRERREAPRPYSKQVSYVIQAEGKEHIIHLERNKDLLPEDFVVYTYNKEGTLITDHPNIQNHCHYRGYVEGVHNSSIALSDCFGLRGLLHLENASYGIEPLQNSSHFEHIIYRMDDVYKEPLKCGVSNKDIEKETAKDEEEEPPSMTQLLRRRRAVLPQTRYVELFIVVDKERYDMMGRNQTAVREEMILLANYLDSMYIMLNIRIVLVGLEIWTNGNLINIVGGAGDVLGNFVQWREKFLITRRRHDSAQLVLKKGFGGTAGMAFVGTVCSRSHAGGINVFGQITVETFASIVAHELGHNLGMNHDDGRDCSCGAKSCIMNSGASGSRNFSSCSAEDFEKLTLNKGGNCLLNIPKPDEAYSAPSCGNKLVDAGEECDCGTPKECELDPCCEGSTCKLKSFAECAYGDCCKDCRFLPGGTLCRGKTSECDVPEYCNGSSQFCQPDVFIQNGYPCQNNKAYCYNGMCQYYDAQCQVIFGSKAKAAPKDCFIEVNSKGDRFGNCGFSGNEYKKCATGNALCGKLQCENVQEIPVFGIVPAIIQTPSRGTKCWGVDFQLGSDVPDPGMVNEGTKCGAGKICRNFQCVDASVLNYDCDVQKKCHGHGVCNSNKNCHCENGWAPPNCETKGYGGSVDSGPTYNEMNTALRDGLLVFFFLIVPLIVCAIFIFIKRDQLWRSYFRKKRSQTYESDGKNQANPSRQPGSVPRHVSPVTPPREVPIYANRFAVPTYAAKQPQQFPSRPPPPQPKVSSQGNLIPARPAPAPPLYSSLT

What was measured:
[1] = target: human ADAM9 (huADAM9) on cells (human) (UniProt Q13443); test: IHC, Cho-K/hu ADAM9.18 high expression P:1 cells, 5 µg/mL
[2] = target: His-tagged soluble human ADAM9 (shADAM9-His) (human) (UniProt Q13443); test: BIACORE
[3] = target: human ADAM9 (huADAM9) on cells (human) (UniProt Q13443); test: IHC, Cho-K/hu ADAM9.2 medium expression P:1 cells, 5 µg/mL
[4] = target: cynomolgus monkey ADAM9 (cynoADAM9) on cells (cynomolgus monkey); test: IHC, Cho-K Cyno #16 cells, 5 µg/mL
[5] = target: cynomolgus monkey ADAM9 (cynoADAM9) on cells (cynomolgus monkey); test: FACS and ELISA
[6] = target: human ADAM9 (huADAM9) on cells (human) (UniProt Q13443); test: IHC, A498 072210 cells, 5 µg/mL
[7] = target: cynomolgus monkey ADAM9 (cynoADAM9) on cells (cynomolgus monkey); test: IHC, Cho-K Cyno #2 cells, 5 µg/mL
[8] = target: human ADAM9 (huADAM9) on cells (human) (UniProt Q13443); test: FACS, 293-FT and CHO-K cells, goat anti-murine-PE
[9] = target: cynomolgus monkey ADAM9 (cynoADAM9) on cells (cynomolgus monkey); test: FACS, 293-FT and CHO-K cells, goat anti-murine-PE
[10] = target: human ADAM9 (huADAM9) on cells (human) (UniProt Q13443); test: cell staining (FACS), 293-FT and CHO-K cells transiently expressing huADAM9
[11] = target: cynomolgus monkey ADAM9 (cynoADAM9) on cells (cynomolgus monkey); test: cell staining (FACS), 293-FT and CHO-K cells transiently expressing cynoADAM9
[12] = target: human ADAM9 (huADAM9) on cells (human) (UniProt Q13443); test: FACS (FIG. 2)
[13] = target: cynomolgus monkey ADAM9 (cynoADAM9) on cells (cynomolgus monkey); test: FACS (FIG. 2)
[14] = target: cynomolgus monkey ADAM9 (cynoADAM9) on cells (cynomolgus monkey); test: FACS, CHO-K cells transiently expressing cynoADAM9; MAB-A then goat anti-murine-PE; yellow fluorescence (YLW-HLog)
[15] = target: human ADAM9 (huADAM9) on cells (human) (UniProt Q13443); test: FACS, CHO-K cells transiently expressing huADAM9; MAB-A then goat anti-murine-PE; yellow fluorescence (YLW-HLog)
[16] = target: cynomolgus monkey ADAM9 (cynoADAM9) on cells (cynomolgus monkey); test: FACS, 293-FT cells transiently expressing cynoADAM9; MAB-A then goat anti-murine-PE; yellow fluorescence (YLW-HLog)
[17] = target: human ADAM9 (huADAM9) on cells (human) (UniProt Q13443); test: FACS, 293-FT cells transiently expressing huADAM9; MAB-A then goat anti-murine-PE; yellow fluorescence (YLW-HLog)
[18] = target: human ADAM9 (huADAM9) on cells (human) (UniProt Q13443); test: IHC, A498 Cell Pellet, 1.25 µg/mL

binding [1]: binds
binding [2]: binds
binding [3]: binds
binding [4]: binds
binding [5]: binds
binding [6]: binds
binding [7]: binds
B1: hMAB-A (2.3) (antibody, V domains shown)
VH: EVQLVESGGGLVKPGGSLRLSCAASGFTFSSYWMHWVRQAPGKGLEWVGEIIPIFGHTNYNEKFKSRFTISLDNSKNTLYLQMGSLRAEDTAVYYCARGGYYYYGSRDYFDYWGQGTTVTVSS
VL: DIVMTQSPDSLAVSLGERATISCRASQSVDYSGDSYMNWYQQKPGQPPKLLIYAASDLESGIPARFSGSGSGTDFTLTISSLEPEDFATYYCQQSHEDPFTFGQGTKLEIK

binding [8]: binds
binding [9]: binds
binding [10]: binds
binding [11]: binds
binding [12]: binds
binding [13]: binds
binding [14]: binds
binding [15]: binds
binding [16]: binds
binding [17]: binds
binding [18]: binds
B2: MAB-A (antibody, V domains shown)
VH: QVQLQQPGAELVKPGASVKLSCKASGYTFTSYWMHWVKQRPGQGLEWIGEIIPINGHTNYNEKFKSKATLTLDKSSSTAYMQLSSLASEDSAVYYCARGGYYYYGSRDYFDYWGQGTTLTVSS
VL: DIVLTQSPASLAVSLGQRATISCKASQSVDYDGDSYMNWYQQIPGQPPKLLIYAASDLESGIPARFSGSGSGTDFTLNIHPVEEEDAATYYCQQSHEDPFTFGGGTKLEIK
